Results reported in PubChem BioAssay AID2685 (National Center for Advancing Translational Sciences (NCATS), 2010).
Some of the results follow. Further columns of the screen follow, without active or inactive calls. The list favours compounds with an active or inconclusive main result. Potencies come from curve fits of mixed quality, noted in brackets.

Experiment: qHTS Assay for Lipid Storage Modulators in Drosophila S3 Cells;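 on cell number change: cells counted by Cell Tracker Red CMTPX staining in the red channel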
Conditions: BODIPY lipid droplet fluorescence, 18-24 h; for cell number change: measured here: cell count max response, cells fed with added oleic acid
In short: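 Drosophila S3 cells got compounds at several concentrations plus oleic acid (400 uM solution). Laser-scanning cytometry with 488 nm excitation read lipid droplets at 500-530 nm and cells at 575-640 nm. Percent activity was relative to 20 uM Triacsin C.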

[1] = measured here: cell number channel AC50, cells fed with added oleic acid
[2] = measured here: lipid fluorescence (Fed channel) AC50, cells fed with added oleic acid

SMILES | cell number change [%] | AC50 [1] | AC50 [2]
Cc1cc(Nc2ccccc2)n(-c2ccc(Br)cc2)n1 | -17.3 | – | –
O=C(CN1C(=O)COc2ccc(Cl)cc21)Nc1ccc2c(c1)OCCO2 | -10.6 | – | –
CC(C)NNC(=O)c1ccncc1 | 36.5 | 6.51 µM [rising, partial curve, poor fit] | 5.8 µM [rising, full curve, poor fit]
O=C(CSc1ccccn1)Nc1nonc1[N+](=O)[O-] | 5.9 | – | 29.1 µM [rising, single point]
O=C1COc2ccc(C(=O)COC(=O)Cc3ccc(F)cc3)cc2N1 | 18.1 | – | –
Cc1c(Cl)cccc1NC(=O)Cn1cc(C(F)(F)F)cc(Cl)c1=O | -4.14 | 6.51 µM [rising, single point] | –
COc1ccccc1-c1cc(C(=O)N/N=C/c2ccc(C)s2)c2ccccc2n1 | – | 1.84 µM [rising, partial curve] | 2.59 µM [rising, partial curve]
COc1ccc(NC(=O)c2ccc(-c3nn(C)c(=O)c4ccccc34)cc2)cc1 | 14.4 | – | 0.164 µM [rising, full curve, poor fit]
CCOC(=O)N1CCN(S(=O)(=O)c2ccc(C(=O)Nc3nnc(CSC)o3)cc2)CC1 | 8.61 | 1.64 µM [falling, partial curve] | –
COC(=O)CN(c1ccc(C(C)C)cc1)S(=O)(=O)c1c(C)[nH]c(=O)[nH]c1=O | -11.1 | – | –
CC(C)OC(=O)NC(c1ccccc1)C(Cl)(Cl)Cl (centres undefined) | -22.6 | 0.259 µM [falling, single point] | –
CC(C)(C)NC(=O)N1c2ccccc2Sc2ccccc21 | -24.6 | – | 0.0731 µM [rising, partial curve]
CCOc1ncccc1C(=O)OCc1cccc([N+](=O)[O-])c1 | – | – | 0.291 µM [falling, full curve, poor fit]
COc1ccccc1NC(=O)c1nn(C)cc1Br | 21.9 | – | 23.1 µM [rising, single point]
CC(=O)Nc1cccc(NC(=O)Nc2cccc3ccccc23)c1 | 12.3 | – | 0.164 µM [rising, full curve]
CC1Cc2ccccc2N1C(=O)CSc1nc(N)cc(=O)[nH]1 (centres undefined) | -26 | – | 0.13 µM [falling, full curve, poor fit]
S=C1N(c2ccccc2)C(c2cccc3ccccc23)N2CCCN12 (centres undefined) | 54.8 | 1.84 µM [rising, full curve] | 2.31 µM [rising, partial curve]
COc1cccc(C(=O)OCn2nnc3ccccc3c2=O)c1OC | 25.6 | 2.06 µM [rising, partial curve] | 0.0291 µM [rising, full curve, poor fit]
CCCOC(=O)c1ccc(N2C(=O)c3ccccc3C2=O)cc1 | 8.04 | – | 18.4 µM [rising, single point]
COc1cccc(NC(=O)Nc2cccs2)c1 | – | 0.0291 µM [falling, full curve, poor fit] | 0.0411 µM [falling, full curve, poor fit]

SMILES | cell number change [%] | AC50 [1] | AC50 [2]
CC(C)(C)n1nnnc1C(c1ccc(F)cc1)N(Cc1ccc(F)cc1)Cc1ccco1 (centres undefined) | -106 | – | 29.1 µM [falling, single point]
Cc1cc(Br)ccc1SCC(=O)OCC(=O)NCc1ccco1 | -47.7 | 29.1 µM [falling, single point] | –
O=C(Nc1ccc(S(=O)(=O)Nc2cnc3ccccc3n2)cc1)c1ccccc1Br | -1.74 | – | –
CCCCn1c(N)c(N(CCOC)C(=O)c2ccc(S(=O)(=O)N3CCC(C)CC3)cc2)c(=O)[nH]c1=O | 3.21 | – | –
Cc1cccc(Nc2nc(N3CCCC3)nc(N3CCCC3)n2)c1 | 145 | 13 µM [rising, partial curve] | 20.6 µM [rising, partial curve]
Cc1c(C(=O)O)sc2nc(SCC(=O)Nc3ccc(S(=O)(=O)NCCCC(=O)O)cc3)[nH]c(=O)c12 | -5.44 | 0.461 µM [rising, single point] | –
CCOC(=O)N1CCC(NC(=O)c2oc3c(c2C)-c2[nH]ncc2CC3)CC1 | 77.1 | 6.51 µM [falling, single point] | 6.51 µM [falling, partial curve]
CC1CCN(S(=O)(=O)c2nnc(NC(=O)COc3ccccc3F)s2)CC1 | 34 | – | –
CCN(CC)C(=O)C(C)OC(=O)c1ccc(O)cc1 (centres undefined) | -11.5 | – | 20.6 µM [falling, single point]
O=C(Nc1c(-c2cccs2)nc2ccccn12)c1ccc2ccccc2c1 | 9.44 | – | 16.4 µM [rising, single point]
O=C(Cc1cccs1)N1CCCC(c2nc3c(nnn3Cc3cccc(Cl)c3)c(=O)[nH]2)C1 (centres undefined) | -11 | – | 29.1 µM [rising, single point]
CN(C(=O)Cn1c(=O)oc2ccccc21)C1CCCCC1 | 3.48 | – | 2.91 µM [rising, full curve, poor fit]
COCCN(C(=O)CSc1nnc(-c2ccccc2F)o1)c1c(N)n(CC(C)C)c(=O)[nH]c1=O | 1.2 | – | –
O=C(Cc1ccc(Cl)cc1)NCC(=O)N1CCCC1 | -9.75 | 1.84 µM [falling, partial curve, poor fit] | 0.164 µM [falling, full curve]
Cc1cc(C)c2c(n1)nn1c(N3CCN(Cc4ccccc4)CC3)cc(C)nc21 | 13.5 | 0.517 µM [rising, full curve] | 20.6 µM [rising, single point]
Cn1c(-c2cc(Br)ccc2O)n[nH]c1=S | -32.5 | 13 µM [falling, partial curve] | 0.58 µM [rising, full curve, poor fit]
COC(=O)CC1SC(=O)NC1=Nc1ccc(C)cc1 (centres undefined) | – | – | 0.58 µM [rising, single point]
COc1cccc(N(CC(=O)N/N=C(\C)c2cccs2)S(C)(=O)=O)c1 | – | – | 5.17 µM [rising, partial curve, poor fit]
CC(C)c1ccc(C2C3=C(CC(C)(C)CC3=O)NC3=C2C(=O)c2ccccc23)cc1 (centres undefined) | -59.2 | 25.9 µM [falling, partial curve] | 23.1 µM [falling, partial curve]
Cc1ccc(S(=O)(=O)NCC(c2ccc3c(c2)OCO3)N2CCOCC2)cc1 (centres undefined) | – | 0.731 µM [falling, full curve, poor fit] | 0.651 µM [falling, partial curve]

As entered above.
COc1ccc(NC(=O)c2ccc(-c3nn(C)c(=O)c4ccccc34)cc2)cc1 | AC50 [2]: 0.164 µM [rising, full curve, poor fit]
CCOc1ncccc1C(=O)OCc1cccc([N+](=O)[O-])c1 | AC50 [2]: 0.291 µM [falling, full curve, poor fit]
O=C(Cc1ccc(Cl)cc1)NCC(=O)N1CCCC1 | cell number change [%]: -9.75

(cont.)

SMILES | cell number change [%] | AC50 [1] | AC50 [2]
O=C(N=C1SCC(=O)N1c1ccccc1Cl)c1ccccc1 | -24.1 | 0.164 µM [falling, partial curve, poor fit] | 0.00461 µM [falling, full curve, poor fit]
CCn1c(C)nc2cc(C(N)=O)ccc21 | -13.4 | – | 6.51 µM [falling, single point]
Cc1cccc(N2C(=O)c3cccc4cccc(c34)C2=O)c1 | 18.6 | 0.731 µM [rising, full curve, poor fit] | –
O=C(O)c1ccc2c(c1)CCC2 | -17.3 | – | –
OCC[C@@H]1C[C@H](O)[C@@H](O)[C@@]2(OCc3ccccc32)O1 | 26.3 | – | –
O=C(NCc1ccccn1)c1ccccc1OCc1ccc(Cl)cc1Cl | 39.5 | 18.4 µM [rising, single point] | 0.116 µM [rising, full curve, poor fit]
CCCc1nnc(NC(=O)CCC(=O)N2CCN(Cc3ccc(C)cc3C)CC2)s1 | 21.1 | – | 29.1 µM [rising, single point]
CCCCn1c(N)c(N(CCC(C)C)C(=O)C2=NN(c3cc(C)ccc3C)C(=O)CC2)c(=O)[nH]c1=O | 0.5 | – | –
CCN(C(=O)COC(=O)c1c(-c2ccccc2)noc1C)c1c(N)n(Cc2ccccc2)c(=O)[nH]c1=O | -31.1 | – | 13 µM [falling, partial curve]
CCOC(=O)/C(=N\Nc1ccccc1[N+](=O)[O-])c1csc(N)n1 | -4.23 | – | 6.51 µM [falling, single point]
COc1ccc(C2(c3ccc(OC)cc3)NC(=O)N(CC(=O)Nc3ccc(OC)c(OC)c3)C2=O)cc1 | -2.7 | – | –
CCn1c(=O)c(C(=O)NCCc2ccccc2)c(O)c2ccccc21 | 290 | 25.9 µM [rising, single point] | 14.6 µM [rising, partial curve]
Cc1ccc(C2=[N+]([O-])C3(CCCCC/C3=N\O)N(O)C2(C)C)o1 (centres undefined) | -21.9 | – | 20.6 µM [falling, single point]
CCCCC(Br)C(=O)Nc1ccc(S(=O)(=O)Nc2cc(C)nc(C)n2)cc1 (centres undefined) | 28.2 | 2.31 µM [rising, full curve, poor fit] | –
O=C(CSc1nc2ccccc2c(=O)n1-c1ccccc1)NCc1ccc2c(c1)OCO2 | – | – | 0.291 µM [rising, partial curve, poor fit]
Oc1ccc(Nc2nc(Cl)nc(NCc3ccco3)n2)cc1 | -23 | – | 29.1 µM [rising, single point]
CCn1c(=O)c(C(=O)NNC(=O)c2ccccc2)c(O)c2ccccc21 | -10.5 | – | 5.62 µM [falling, single point]
O=C(NCCN1CCOCC1)c1cccc(S(=O)(=O)Nc2ccc(Br)cc2)c1 | -13.4 | – | 16.4 µM [falling, single point]
CCc1ccc(C(CC(=O)O)N2Cc3ccccc3C2=O)cc1 (centres undefined) | -23.7 | – | 16.4 µM [falling, partial curve, poor fit]

2 entries picked at random from those above, as already listed:
SMILES | cell number change [%] | AC50 [1] | AC50 [2]
O=C(Nc1ccc(S(=O)(=O)Nc2cnc3ccccc3n2)cc1)c1ccccc1Br | -1.74 | – | –
CCCOC(=O)c1ccc(N2C(=O)c3ccccc3C2=O)cc1 | 8.04 | – | 18.4 µM [rising, single point]
